Reference: PubChem BioAssay AID720505 (Drosophila RNAi Screening Center, 2013)
The screen tested about 20,000 reagents; this is a random part of those with a known target gene and a result. In the full data, about 2,100 (10%) were called active. 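Raw plate signals without normalisation; calls rest on control-based scores that were not deposited; replicate 2 separates called from uncalled poorly.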 Unmarked entries are inactive. The numbers tell different reagents against one gene apart. The record does not give: the amount of reagent, the time to read-out.

Test: 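Fly regulators or components of the CRAC channel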 (primary screen)
System: Drosophila S2R+ cells
Knock-down reagent: long dsRNA against Drosophila genes
Challenge: thapsigargin (2 µM) in calcium-free buffer to empty internal stores, then 2 mM calcium added back
Read-out: 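Fluo-4 signal in 384-well plates read on a FLIPR after thapsigargin (2 µM, calcium-free) store depletion and 2 mM calcium add-back; unnormalised mean endpoint per well; screen run twice, selected wells retested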
Direction: calcium signal: higher = more calcium entry after store depletion
Rule for the call: 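Knock-downs counted as hits when calcium entry dropped relative to STIM1 positive and Rho1 negative controls present on each plate; roughly 1500 genes called, with reductions of differing size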
Calls: active = called as lowering calcium entry; inactive = not called

{"target": "TfAP-2 (GeneID 40398)", "reagent": 1, "calcium signal, replicate 1": 90.2, "calcium signal, replicate 2": 241}
{"target": "brun (GeneID 35325)", "reagent": 1, "calcium signal, replicate 1": 98, "calcium signal, replicate 2": 98.5}
{"target": "Evi5 (GeneID 32088)", "reagent": 1, "calcium signal, replicate 1": 105, "calcium signal, replicate 2": 86.4}
{"target": "CAH15 (GeneID 37366)", "reagent": 1, "calcium signal, replicate 1": 172, "calcium signal, replicate 2": 96.7}
{"target": "Acp26Ab (GeneID 33816)", "reagent": 1, "calcium signal, replicate 1": 176, "calcium signal, replicate 2": 93.8}
{"target": "dx (GeneID 31589)", "reagent": 1, "calcium signal, replicate 1": "102 (active)", "calcium signal, replicate 2": 139}
{"target": "M7BP (GeneID 35698)", "reagent": 1, "calcium signal, replicate 1": 90.8, "calcium signal, replicate 2": 117}
{"target": "M7BP (GeneID 35698)", "reagent": 2, "calcium signal, replicate 1": 106, "calcium signal, replicate 2": 91.2}
{"target": "M7BP (GeneID 35698)", "reagent": 3, "calcium signal, replicate 1": 142, "calcium signal, replicate 2": 76.9}
{"target": "M7BP (GeneID 35698)", "reagent": 4, "calcium signal, replicate 1": 119, "calcium signal, replicate 2": 126}
{"target": "M7BP (GeneID 35698)", "reagent": 5, "calcium signal, replicate 1": 135, "calcium signal, replicate 2": 202}
{"target": "CG6689 (GeneID 41345)", "reagent": 1, "calcium signal, replicate 1": 107, "calcium signal, replicate 2": 134}

2 entries from above in another layout:
target,reagent,"calcium signal, replicate 1","calcium signal, replicate 2"
Acp26Ab (GeneID 33816),1,176,93.8
dx (GeneID 31589),1,102 (active),139
